These are yes or no findings as the source states them, for the method shown. Some binding calls cover weakened binding; strength is not graded here. Sequences can lack the tags named with a protein.
T1: extracellular region of FGFR4 fused to the Fc fragment of human IgG1 (human) (UniProt P22455)
T1 sequence (chain, N-glycosylated (five putative N-glycosylation sites)): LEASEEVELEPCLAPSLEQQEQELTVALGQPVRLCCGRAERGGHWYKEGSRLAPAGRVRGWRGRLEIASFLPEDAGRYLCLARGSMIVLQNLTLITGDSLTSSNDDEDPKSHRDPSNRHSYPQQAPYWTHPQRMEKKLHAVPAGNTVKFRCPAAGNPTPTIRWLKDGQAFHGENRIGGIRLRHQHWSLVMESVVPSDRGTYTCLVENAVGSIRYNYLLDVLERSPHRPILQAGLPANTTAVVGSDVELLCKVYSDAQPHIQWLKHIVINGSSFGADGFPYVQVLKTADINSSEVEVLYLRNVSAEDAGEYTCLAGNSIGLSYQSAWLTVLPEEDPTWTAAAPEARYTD


Biological target: T1, extracellular region of FGFR4 fused to the Fc fragment of human IgG1 (human)
Test: BLI; Octet RED K2; FGFR-Fc variants or Fc (25 μg/mL) immobilised in PBS on Protein-A sensors in a pairwise manner; galectins in solution (50 μg/mL); both purified

binding | Binder
binds | galectin-2 (protein, UniProt P05162 1-132) MTGELEVKNMDMKPGSTLKITGSIADGTDGFVINLGQGTDKLNLHFNPRFSESTIVCNSLDGSNWGQEQREDHLCFSPGSEVKFTVTFESDKFKVKLPDGHELTFPNRLGHSHLSYLSVRGGFNMSSFKLKE
binds | galectin-14 (protein, UniProt Q8TCE9 1-139) MSSLPVPYTLPVSLPVGSCVIITGTPILTFVKDPQLEVNFYTGMDEDSDIAFQFRLHFGHPAIMNSCVFGIWRYEEKCYYLPFEDGKPFELCIYVRHKEYKVMVNGQRIYNFAHRFPPASVKMLQVFRDISLTRVLISD

From PMC10070233
